Results taken from US12630500B2, “Hexasubstituted radialene compounds and applications thereof” (THE UNIVERSITY OF NORTH CAROLINA AT CHARLOTTE, priority 2019, dated 2026).

Columns and labels:
[1] = Laboratory scale flow cell with MV(SO3)2 anolyte
[2] = Galvanostatic charge-discharge in symmetric static H-cell; settings: after 50 cycles (12 days)

For `COC(=O)[C-](C#N)C1=C([C-](C#N)C(=O)OC)C1=C(C#N)C#N.[Na+].[Na+]` (centres unmarked) [Compound 3, diester-tetracyano [3] radialene dianion], the “electrochemical yield of the flow cell” value ([1]; experimental vs. theoretical capacity, 50 cycles) was “around 25%”, the coulombic efficiency ([1]; flow cell, 50 cycles, 15 mA, 2.5 mL/min) was 99.609% and the capacity loss ([1]; flow cell, fifty cycles) was 0.046 % per cycle. The coulombic efficiency [2] was 98.7% and the energy efficiency [2] was 72%.
